Measured values from article PMC9870865.
No constants are given. Whether binding was seen depends on the method and setting. Binding seen in cells or lysates may run through a third protein. Some binding calls cover weakened binding; strength is not graded here. For part of these data: Tags and fused reporters may be left off the sequences shown.

By UniProt entry, the sequences of proteins in these tests, tags left out.
UniProt Q9H7E2: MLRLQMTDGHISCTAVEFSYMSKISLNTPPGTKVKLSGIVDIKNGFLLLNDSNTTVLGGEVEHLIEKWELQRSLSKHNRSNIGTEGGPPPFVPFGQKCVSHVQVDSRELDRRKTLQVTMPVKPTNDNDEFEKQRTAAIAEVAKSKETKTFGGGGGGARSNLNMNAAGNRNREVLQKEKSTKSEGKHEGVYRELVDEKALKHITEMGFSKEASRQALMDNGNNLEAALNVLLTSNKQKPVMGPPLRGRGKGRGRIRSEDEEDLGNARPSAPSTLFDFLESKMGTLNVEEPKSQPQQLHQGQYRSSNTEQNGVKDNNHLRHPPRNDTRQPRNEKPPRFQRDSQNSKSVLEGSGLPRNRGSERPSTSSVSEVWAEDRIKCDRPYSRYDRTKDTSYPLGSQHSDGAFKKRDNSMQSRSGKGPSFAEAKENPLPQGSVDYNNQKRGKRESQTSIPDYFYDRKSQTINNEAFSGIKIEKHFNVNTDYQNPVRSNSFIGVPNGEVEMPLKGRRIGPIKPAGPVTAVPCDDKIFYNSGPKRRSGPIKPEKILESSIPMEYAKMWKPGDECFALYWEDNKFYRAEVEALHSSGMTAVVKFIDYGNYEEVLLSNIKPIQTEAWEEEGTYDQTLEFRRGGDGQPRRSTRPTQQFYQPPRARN

Legend:
NFIB (co-IP with TDRD3) = NFIB (co-IP with TDRD3) (UniProt O00712); assay: co-IP; co-IP of TDRD3 and NFIB (Supplementary Fig. 2a); cells and constructs not shown
[1] = target: NFIB (endogenous) (human (endogenous in HEK293T or HeLa, and in H69)) (UniProt O00712); assay: co-IP; endogenous NFIB and endogenous TRIM29, untreated cells (Supplementary Fig. 2b); cells not shown
[2] = target: NFIB (endogenous) (human (endogenous in HEK293T or HeLa, and in H69)) (UniProt O00712); assay: co-IP; endogenous NFIB immunoprecipitated from HEK293T cells (legend; the text says HeLa) transfected with FLAG-tagged constructs, cultured with DMSO or CARM1 inhibitor; anti-FLAG blot; lysis buffer 50 mM Tris pH 8, 150 mM NaCl, 1 mM EDTA, 0.5% NP40, 10% glycerol

In the case of “TDRD3 (co-IP) (from UniProt Q9H7E2 1-651)”, the binding (NFIB (co-IP with TDRD3)) is reported as “binds”.

B1: TRIM29 (endogenous) (protein, UniProt Q14134 1-588)
chain: MEAADASRSNGSSPEARDARSPSGPSGSLENGTKADGKDAKTTNGHGGEAAEGKSLGSALKPGEGRSALFAGNEWRRPIIQFVESGDDKNSNYFSMDSMEGKRSPYAGLQLGAAKKPPVTFAEKGELRKSIFSESRKPTVSIMEPGETRRNSYPRADTGLFSRSKSGSEEVLCDSCIGNKQKAVKSCLVCQASFCELHLKPHLEGAAFRDHQLLEPIRDFEARKCPVHGKTMELFCQTDQTCICYLCMFQEHKNHSTVTVEEAKAEKETELSLQKEQLQLKIIEIEDEAEKWQKEKDRIKSFTTNEKAILEQNFRDLVRDLEKQKEEVRAALEQREQDAVDQVKVIMDALDERAKVLHEDKQTREQLHSISDSVLFLQEFGALMSNYSLPPPLPTYHVLLEGEGLGQSLGNFKDDLLNVCMRHVEKMCKADLSRNFIERNHMENGGDHRYVNNYTNSFGGEWSAPDTMKRYSMYLTPKGGVRTSYQPSSPGRFTKETTQKNFNNLYGTKGNYTSRVWEYSSSIQNSDNDLPVVQGSSSFSLKGYPSLMRSQSPKAQPQTWKSGKQTMLSHYRPFYVNKGNGIGSNEAP
In the case of B1, the binding [1] is reported as “binds”.

B2: Flag-tagged TRIM29 (full length) (protein, UniProt Q14134 1-588)
chain: B1 chain
For B2, the binding [2] was “binds”.
